Test results from PubChem BioAssay AID1671190 (National Center for Advancing Translational Sciences (NCATS), 2021).
Where “and” joins values, the source holds several entries; their conditions need not be identical. Identical values can stand only once. Screen size: about 580,000 compounds; about 6,100 (1.1%) were called active. Inconclusive results, whose numbers are uncertain, are shown with a selection of clear calls. Calls follow the shape of the dose curve; as a rule, active = well fitted inhibition curve with a large enough effect; inconclusive = small, poorly fitted or top-dose-only effect, or another doubt; inactive = no such curve, though single readings can be large or run the other way. Potencies beside an inconclusive call are fits to weak or partial responses and may not hold up.

Sequences of proteins named here, by UniProt entry; tags and fusion partners are left off. A change or cut given only in a name is not applied to a line headed by its entry.
UniProt P18054: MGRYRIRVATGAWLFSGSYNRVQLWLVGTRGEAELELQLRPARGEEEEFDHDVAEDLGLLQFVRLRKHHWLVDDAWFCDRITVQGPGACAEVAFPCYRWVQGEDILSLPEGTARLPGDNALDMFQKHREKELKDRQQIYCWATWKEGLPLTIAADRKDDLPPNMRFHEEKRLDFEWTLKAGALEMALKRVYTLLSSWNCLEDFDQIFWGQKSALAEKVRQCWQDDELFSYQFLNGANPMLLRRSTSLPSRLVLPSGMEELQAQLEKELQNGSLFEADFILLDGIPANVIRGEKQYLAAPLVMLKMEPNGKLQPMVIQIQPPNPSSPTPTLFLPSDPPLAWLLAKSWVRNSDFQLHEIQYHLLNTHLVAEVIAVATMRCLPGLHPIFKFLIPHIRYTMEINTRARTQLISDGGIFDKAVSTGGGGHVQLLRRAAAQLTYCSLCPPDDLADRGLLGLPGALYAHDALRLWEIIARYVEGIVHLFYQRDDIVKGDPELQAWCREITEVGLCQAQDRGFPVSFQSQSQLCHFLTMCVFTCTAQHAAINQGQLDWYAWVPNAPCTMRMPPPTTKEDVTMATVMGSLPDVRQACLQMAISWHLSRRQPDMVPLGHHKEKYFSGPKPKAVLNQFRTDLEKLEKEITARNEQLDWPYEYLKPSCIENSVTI

target: Polyunsaturated fatty acid lipoxygenase ALOX12 (Homo sapiens) (UniProt P18054); test: Primary qHTS assay for inhibitors of human arachidonate 12S-lipoxygenase (ALOX12): Round 2; settings: purified 12hLO, xylenol orange hydroperoxide absorbance; activity change, negative = inhibition: at 108 µM (top of the series) unless noted
Procedure, shortened: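 Hydroperoxide product was detected by ferrous iron/xylenol orange as the 573 to 405 nm absorbance ratio. Arachidonic acid at 40 uM (final) was turned over for 30 min at room temperature by 150 nM human 12hLO, pH 7.0 Hepes buffer, after 15 min compound preincubation.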
% is scaled to controls: 0 for no effect and ±100 for the full control effect; potency is read from the fitted curve at half-maximal effect.

**Q.** How did the Potency turn out when `COc1ccc(C2=Nn3c(nnc3-c3cccc(F)c3)SC2)cc1` was run?
**A.** inconclusive: 5.62 µM [inhibitor, full curve, poor fit]

**Q.** For `Cc1ccc(CN2CCc3oc(C)c(C(=O)N(C)CC(=O)N4CCCC4)c3C2)cc1`, which Potency is on record?
**A.** inconclusive: 17.8 µM [inhibitor, full curve]

**Q.** Which Potency does the source give for `O=[N+]([O-])c1ccc2c(c1)-c1ccccc1C2O` (stereo not given) here?
**A.** active: 7.08 µM

**Q.** For `COc1ccc2cc(C(=O)CS(=O)(=O)c3ccccc3)c(=O)oc2c1`, which “activity change, negative = inhibition” value is on record?
**A.** inactive: -6.63%

**Q.** Which Potency does the source give for `CC(C)(O)C#Cc1ccc(CN2CCC(CO)(CCc3ccccc3)CC2)cc1` here?
**A.** inconclusive: 0.355 µM [inhibitor, full curve, poor fit]

**Q.** For `O=C(O)COc1ccc(OCCNC[C@H](O)COc2ccccc2)cc1`, which “activity change, negative = inhibition” value is on record?
**A.** inactive: 1.37%

**Q.** For `CC(=O)c1ccc(S(=O)(=O)N2CCn3cccc3C2C)cc1` (stereo not given), which Potency is on record?
**A.** inconclusive: 79.4 µM [inhibitor, partial curve, poor fit]

**Q.** How did the Potency turn out when `COC(=O)c1ccc2ccn(CC(=O)NC(C)C)c2c1` was run?
**A.** inconclusive: 56.2 µM [inhibitor, partial curve, poor fit]

**Q.** With `COC(=O)C1=C(C)N(C)C(=NCc2ccccc2)NC1c1ccc(F)cc1` (stereo not given) as the compound, how does the “activity change, negative = inhibition” value read?
**A.** inactive: 0.715%

**Q.** `COc1ccc(-c2nc3cc(NC(=O)c4cc5ccccc5o4)ccc3o2)cc1` was tested. Which “activity change, negative = inhibition” value did it give?
**A.** inactive: 0%

**Q.** For `O=C(COC(=O)[C@H](Cc1c[nH]c2ccccc12)NC(=O)c1cccs1)NCc1ccccc1`, which Potency is on record?
**A.** inconclusive: 89.1 µM [inhibitor, partial curve, poor fit]

**Q.** With `Cc1ccc(-c2nc(-c3ccc(F)cc3)no2)cc1` as the compound, how does the “activity change, negative = inhibition” value read?
**A.** inactive: -46.6%

**Q.** With `CCC(=O)Nc1ccc(C(C)NCc2ccsc2)cc1` (stereo not given) as the compound, how does the “activity change, negative = inhibition” value read?
**A.** inactive: -10.6%

**Q.** Which Potency does the source give for `Cc1ccc(C2=C/C(=C/c3cccnc3)C(=O)O2)c(C)c1` here?
**A.** inconclusive: 50.1 µM [inhibitor, partial curve, poor fit]

**Q.** With `Cc1ccc(-c2csc(-c3ccc(O)cc3)n2)cc1` as the compound, how does the Potency read?
**A.** inconclusive: 39.8 µM [inhibitor, partial curve, poor fit]

**Q.** Which Potency does the source give for `COc1ccc2c(c1)CCCC2NS(=O)(=O)OCC(Cl)(Cl)Cl` (stereo not given) here?
**A.** inconclusive: 126 µM [inhibitor, single point]

**Q.** With `CN(C)CCOc1cccc(C(=O)/C=C/c2ccc(C(=O)O)cc2)c1` as the compound, how does the Potency read?
**A.** inconclusive: 44.7 µM [inhibitor, partial curve, poor fit]

**Q.** Which “activity change, negative = inhibition” value does the source give for `O=C(OCC(=O)N1CCCC1=O)c1cc2ccccc2o1` here?
**A.** inactive: 145%

**Q.** `CC(C)Cn1c(N)c(C(=O)COC(=O)C2Cc3ccccc3CN2S(C)(=O)=O)c(=O)n(C)c1=O` (stereo not given) was tested. Which “activity change, negative = inhibition” value did it give?
**A.** inactive: -15.5%

**Q.** Which Potency does the source give for `CSc1ccc(C=NNc2ccc(S(=O)(=O)Nc3ccccc3C(=O)O)cc2[N+](=O)[O-])cc1` here?
**A.** inconclusive: 7.94 µM [inhibitor, full curve, poor fit]

**Q.** Which Potency does the source give for `CCOc1ccc(-c2cc(C(=O)O)c3cc(Br)ccc3n2)cc1` here?
**A.** inconclusive: 7.94 µM [inhibitor, full curve, poor fit] and inconclusive: 15.8 µM [inhibitor, partial curve, poor fit]

**Q.** With `COc1ccc(CN(Cc2ccccc2)Cc2cc(=O)n3cc(C)sc3n2)cc1OC` as the compound, how does the Potency read?
**A.** inconclusive: 44.7 µM [inhibitor, partial curve, poor fit]

**Q.** With `COC(=O)[C@@]12C[C@@H](CC(=O)NCc3cccc4ccccc34)C(=O)N(Cc3ccco3)C1=CCC(C)(C)C2` as the compound, how does the Potency read?
**A.** inconclusive: 3.16 µM [inhibitor, full curve, poor fit]

**Q.** How did the Potency turn out when `COc1ccc(NC(=O)CSc2nnc3n2CCCCC3)cc1OC` was run?
**A.** inconclusive: 44.7 µM [inhibitor, partial curve, poor fit]

**Q.** For `Cc1ccc(COC[C@H](CC(C)C)N2CCN(C(=O)c3cccc(C(F)(F)F)c3)CCC2=O)cc1`, which “activity change, negative = inhibition” value is on record?
**A.** inactive: -3.85%

**Q.** How did the Potency turn out when `COc1cc(OC)cc(C(=O)NCC(=O)N2CCN(Cc3ccccc3)CC2)c1` was run?
**A.** inconclusive: 112 µM [inhibitor, single point]

**Q.** With `Nc1nc2c(ncn2[C@H]2C[C@H](O)[C@@H](CO)O2)c(=O)[nH]1` as the compound, how does the “activity change, negative = inhibition” value read?
**A.** inactive: 17.8%

**Q.** For `CN1CCN(c2ncc3nc(-c4ccc(Cl)cc4)c(=O)n(-c4ccccc4)c3n2)CC1`, which Potency is on record?
**A.** inconclusive: 39.8 µM [inhibitor, single point]

**Q.** How did the “activity change, negative = inhibition” value turn out when `CC(C(=O)N1CCCc2ccccc21)N1CCN(c2ccccn2)CC1` (stereo not given) was run?
**A.** inactive: -27.7%

**Q.** For `C=CCOc1cccc(C(=O)N2CCCC(Nc3ccc4c(c3)OCCO4)C2)c1` (stereo not given), which Potency is on record?
**A.** inconclusive: 35.5 µM [inhibitor, partial curve]

**Q.** Which Potency does the source give for `Cc1cccc(CNC(=O)Cc2cccc3cccnc23)c1` here?
**A.** inconclusive: 17.8 µM [inhibitor, partial curve]

**Q.** For `COc1ccc(C(=O)N2CC[C@@H](CC(=O)O)[C@@H](CCN3CCN(c4ccccn4)CC3)C2)cc1`, which Potency is on record?
**A.** inconclusive: 12.6 µM [inhibitor, full curve]

**Q.** Which Potency does the source give for `COCCn1c(SCC(=O)N2CCCCCC2)nc2c(c1=O)SCC2` here?
**A.** inconclusive: 28.2 µM [inhibitor, full curve, poor fit]

**Q.** For `CCCCNC(=O)Cc1csc2nc(C)c(-c3cc(C)n(-c4ccccc4CC)n3)c(=O)n12`, which Potency is on record?
**A.** inconclusive: 25.1 µM [inhibitor, single point]

**Q.** With `Cc1ccc(C)c(Nc2nn3c(=O)c4ccc(C(=O)NCc5cccs5)cc4nc3s2)c1` as the compound, how does the Potency read?
**A.** inconclusive: 56.2 µM [inhibitor, partial curve, poor fit]

**Q.** `Cc1noc2ncnc(N3CCN(c4cccc(Cl)c4)CC3)c12` was tested. Which “activity change, negative = inhibition” value did it give?
**A.** inactive: 3.14%

**Q.** With `CN(C1CCCCC1)S(=O)(=O)c1ccc2c(c1)c(=O)c(C(=O)NCc1ccc(Cl)cc1)cn2C` as the compound, how does the Potency read?
**A.** inconclusive: 44.7 µM [inhibitor, partial curve, poor fit]

**Q.** With `C=CCNc1oc(/C=C/c2cccs2)nc1C#N` as the compound, how does the Potency read?
**A.** active: 17.8 µM

**Q.** With `COCC(C)NCc1ccccc1C` (stereo not given) as the compound, how does the Potency read?
**A.** inconclusive: 11.2 µM [inhibitor, full curve, poor fit]

**Q.** `CCCn1c(-c2cccs2)nc2ccccc21` was tested. Which “activity change, negative = inhibition” value did it give?
**A.** inactive: -11.9%

**Q.** Which Potency does the source give for `Cc1ccc(-c2nc3ccc(C)cn3c2CC2CCCCC2)cc1` here?
**A.** inconclusive: 44.7 µM [inhibitor, partial curve, poor fit]

**Q.** `COc1ccc(CNC(=O)c2cc(-c3ccc(OC)c(OC)c3)on2)cc1` was tested. Which Potency did it give?
**A.** inconclusive: 4.47 µM [inhibitor, full curve, poor fit]

**Q.** With `CC(Sc1nnc(NC2CC2)s1)C(=O)Nc1ccc(S(N)(=O)=O)cc1` (stereo not given) as the compound, how does the Potency read?
**A.** inconclusive: 3.16 µM [inhibitor, full curve, poor fit]

**Q.** With `CCOC(=O)c1cc(NC(=O)c2c(C)noc2C)cc(C(=O)OCC)c1` as the compound, how does the Potency read?
**A.** inconclusive: 3.98 µM [inhibitor, full curve]

**Q.** How did the Potency turn out when `CC(OC(=O)C1=CN2CCS(=O)(=O)N=C2C=C1)C(=O)Nc1cccc(C(F)(F)F)c1` (stereo not given) was run?
**A.** inconclusive: 89.1 µM [inhibitor, single point]

**Q.** With `CCOc1ccc(CCNC(=O)CCc2nnc3ccc(N4CCOCC4)nn23)cc1OCC` as the compound, how does the “activity change, negative = inhibition” value read?
**A.** inactive: 365%

**Q.** With `CN(CC(=O)Nc1ccc(Cl)cc1)C(=O)CCc1nc2sc3c(c2c(=O)[nH]1)CCCC3` as the compound, how does the “activity change, negative = inhibition” value read?
**A.** inactive: -26.1%

**Q.** Which Potency does the source give for `CCCCn1c(CN2CCN(C(=O)c3ccco3)CC2)nc2c1c(=O)[nH]c(=O)n2Cc1ccccc1` here?
**A.** inconclusive: 31.6 µM [inhibitor, partial curve, poor fit]

**Q.** For `Cc1ccc2nc(C)c(C(=O)N3CCN(Cc4ccccc4F)CC3)cc2c1`, which Potency is on record?
**A.** inconclusive: 44.7 µM [inhibitor, partial curve, poor fit]

**Q.** With `Cn1cccc1/C=C1\SC(=Nc2ccc(O)cc2)NC1=O` as the compound, how does the “activity change, negative = inhibition” value read?
**A.** inactive: -20.7%

**Q.** With `Cc1cc(C)cc(NC(=O)CCN2C(=O)c3ccccc3Sc3ncccc32)c1` as the compound, how does the Potency read?
**A.** inconclusive: 56.2 µM [inhibitor, partial curve, poor fit]

**Q.** With `S=c1[nH]nc(Cn2nnc3ccccc32)n1-c1ccc(Cl)cc1` as the compound, how does the “activity change, negative = inhibition” value read?
**A.** inactive: -1.04%

**Q.** How did the Potency turn out when `Cc1ccc2cc(C(c3nnnn3C3CCCC3)N(Cc3ccco3)Cc3cccs3)c(=O)[nH]c2c1` (stereo not given) was run?
**A.** inconclusive: 56.2 µM [inhibitor, partial curve, poor fit]

**Q.** With `Cc1cc(C)c2c(=N)c3ccccc3n(CCCCCCCCn3c4ccccc4c(=N)c4c(C)cc(C)nc43)c2n1` as the compound, how does the Potency read?
**A.** inconclusive: 70.8 µM [inhibitor, partial curve, poor fit]

**Q.** With `COc1cc(OC)cc(C(=O)Nc2ccc3oc(=O)ccc3c2)c1` as the compound, how does the Potency read?
**A.** inconclusive: 112 µM [inhibitor, single point]

**Q.** `Cc1cccc(CC(=O)N2CC(=O)Nc3ccc(Br)cc3C2c2ccccc2)c1` (stereo not given) was tested. Which Potency did it give?
**A.** inconclusive: 5.62 µM [inhibitor, full curve, poor fit]

**Q.** `CCc1ccccc1N(C(C)=O)c1nc(CCl)cs1` was tested. Which “activity change, negative = inhibition” value did it give?
**A.** inactive: -7.62%

**Q.** `Cc1ccc(-c2n[nH]c(=S)n2/N=C/c2sccc2C)cc1` was tested. Which Potency did it give?
**A.** inconclusive: 28.2 µM [inhibitor, single point]

**Q.** How did the Potency turn out when `O=C(N/N=C\c1ccc(OC(=O)c2cccs2)cc1)c1ccc(Cl)cc1` was run?
**A.** inconclusive: 112 µM [inhibitor, partial curve, poor fit]

**Q.** How did the “activity change, negative = inhibition” value turn out when `COc1cccc(CNC(=O)c2ncoc2-c2cccc(C)c2)c1OC` was run?
**A.** inactive: 8.73%

**Q.** Which Potency does the source give for `Cc1cc(C)c(NC(=O)CN2C(=O)CCSc3ccc(S(=O)(=O)N4CCCC4)cc32)c(C)c1` here?
**A.** inconclusive: 100 µM [inhibitor, partial curve, poor fit]

**Q.** With `COC(=O)Nc1ccc2c(c1)Nc1ccccc1CC2` as the compound, how does the Potency read?
**A.** inconclusive: 50.1 µM [inhibitor, partial curve, poor fit]

**Q.** How did the “activity change, negative = inhibition” value turn out when `Cc1ccc(C(C)NC(=O)c2ccncc2)c(C)c1` (stereo not given) was run?
**A.** inactive: -1.73%

**Q.** How did the Potency turn out when `COc1cc(/C=C(\C#N)C(=O)c2ccc(C)cc2)ccc1OCc1ccc(Cl)cc1Cl` was run?
**A.** inconclusive: 56.2 µM [inhibitor, partial curve, poor fit]

**Q.** How did the Potency turn out when `COC(=O)[C@]1(C)N[C@H](CN(C)C(=O)Nc2ccc(OC)cc2)[C@@H]2C(=O)N(C)C(=O)[C@@H]21` was run?
**A.** inconclusive: 5.62 µM [inhibitor, full curve, poor fit]
